No constants are given. Whether binding was seen depends on the method and setting. Some binding calls cover weakened binding; strength is not graded here. For part of these data: Tags and fused reporters may be left off the sequences shown.
Legend:
FGF10-Fc (human) = target: T1, FGF10-Fc (human) (UniProt O15520); assay: BLI; Octet RED K2; FGFs-Fc (25 µg/mL; N-glycosylated or PNGase F-treated) on Protein-A sensors, pairwise with a reference sensor (Fc subtracted); galectins at 50 µg/mL in solution; both purified
T1 sequence (chain, N-glycosylated (two putative N-glycosylation sites; shift on PNGase F treatment)): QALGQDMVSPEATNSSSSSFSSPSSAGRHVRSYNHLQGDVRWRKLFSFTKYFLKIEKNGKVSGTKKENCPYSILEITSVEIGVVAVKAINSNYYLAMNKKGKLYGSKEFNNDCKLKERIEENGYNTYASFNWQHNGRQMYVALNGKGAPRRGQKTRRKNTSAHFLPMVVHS

By UniProt entry, the sequences of proteins in these tests, tags left out. Residues count along the entry.
UniProt O76093, residues 28-207: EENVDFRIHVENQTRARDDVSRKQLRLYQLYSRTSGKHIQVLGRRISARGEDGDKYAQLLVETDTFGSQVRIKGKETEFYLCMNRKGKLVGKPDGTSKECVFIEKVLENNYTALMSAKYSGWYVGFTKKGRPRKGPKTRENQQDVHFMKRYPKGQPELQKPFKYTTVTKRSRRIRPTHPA
UniProt P08620, residues 31-206: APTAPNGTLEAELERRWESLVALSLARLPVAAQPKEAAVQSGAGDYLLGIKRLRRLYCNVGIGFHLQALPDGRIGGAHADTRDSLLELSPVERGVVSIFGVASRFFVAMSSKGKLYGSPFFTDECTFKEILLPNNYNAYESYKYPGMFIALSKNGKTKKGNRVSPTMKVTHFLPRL

FGF18-Fc (human) = FGF18-Fc (human) (UniProt O76093); assay: as above
FGF4-Fc (human) = FGF4-Fc (human) (UniProt P08620); assay: as above
galectin-1 (human) = galectin-1 (human) (UniProt P09382); assay: overlay or dot blot; galectin array: recombinant galectins (0,5 pmol) dot-blotted on PVDF, blocked with 3% BSA, incubated overnight with FGFs-Fc or Fc (0,9 pM); anti-Fc mAb-HRP and chemiluminescence; with FGF4-Fc also done in the presence of lactose (Fig. S1); both purified
galectin-3 (human) = galectin-3 (human) (UniProt P17931); assay: as above
galectin-7 (human) = galectin-7 (human) (UniProt P47929); assay: as above

binding (FGF10-Fc (human)) | binding (FGF18-Fc (human)) | binding (FGF4-Fc (human)) | binding (galectin-1 (human)) | binding (galectin-3 (human)) | binding (galectin-7 (human)) | Substance
binds | binds | binds | – | – | – | galectin-7 (from UniProt P47929 1-136)
binds | binds | binds | – | – | – | galectin-3 (from UniProt P17931 1-250)
binds | binds | binds | – | – | – | galectin-1 (from UniProt P09382 1-135)
– | – | – | binds | binds | binds | FGF18-Fc (from UniProt O76093 28-207) (Fc fusion)
